These are yes or no findings as the source states them, for the method shown. Some results given as binding are weak or reduced against the parent protein; the word gives no strength.
Target: CDC-37·DNJ-13 complex (with *CDC-37) (nematode | C. elegans) (UniProt O02108+Q20774)
Experiment: AUC; sedimentation velocity with fluorescence detection; 300 nM *CDC-37 with or without 2 µM binding partners; 42,000 rpm, 20 °C; 40 mM HEPES/KOH pH 7.5, 20 mM KCl, 1 mM DTT, 5 mM MgCl2; with and without ATPγS for HSP-90; both purified

Amino acid sequences for entries named in this document (tags omitted). A change or cut given only in a name is not applied to a line headed by its entry.
UniProt O02108: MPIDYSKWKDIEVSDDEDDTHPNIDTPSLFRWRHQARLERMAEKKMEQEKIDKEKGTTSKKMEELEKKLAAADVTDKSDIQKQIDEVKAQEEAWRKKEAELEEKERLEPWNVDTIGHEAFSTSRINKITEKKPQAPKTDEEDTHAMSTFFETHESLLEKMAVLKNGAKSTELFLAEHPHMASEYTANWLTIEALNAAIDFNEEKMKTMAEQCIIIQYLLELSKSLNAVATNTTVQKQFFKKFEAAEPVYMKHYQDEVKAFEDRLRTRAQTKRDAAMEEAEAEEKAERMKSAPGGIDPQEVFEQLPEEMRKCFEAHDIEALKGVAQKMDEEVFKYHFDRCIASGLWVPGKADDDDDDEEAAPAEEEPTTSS
UniProt Q20774: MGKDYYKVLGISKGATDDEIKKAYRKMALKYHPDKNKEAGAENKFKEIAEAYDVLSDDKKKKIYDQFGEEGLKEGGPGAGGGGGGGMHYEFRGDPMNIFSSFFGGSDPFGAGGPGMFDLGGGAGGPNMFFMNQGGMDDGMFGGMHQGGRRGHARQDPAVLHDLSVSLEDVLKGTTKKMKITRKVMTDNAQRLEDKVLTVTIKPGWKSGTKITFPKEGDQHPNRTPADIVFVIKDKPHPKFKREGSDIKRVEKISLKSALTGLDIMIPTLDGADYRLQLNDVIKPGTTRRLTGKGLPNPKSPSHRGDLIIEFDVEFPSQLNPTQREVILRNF

- binding: binds
Substance: HSP-90 (from UniProt Q18688 1-702)

Source: publication PMC8560915
